This is an account of results in patent publication US20090312384A1, “Benzimidazole As Cooling Compounds” (priority 2006, published 2009).

Molecules are shown by their SMILES.

This series relates to panelists. Put plainly: Panel tasting of aqueous solutions for cooling intensity versus menthol at 2 ppm. Type of series: in vivo. The settings on record: aqueous solution at the stated concentration. From the text:
Experiments on cooling properties/intensities.
A group of panelists was asked to taste various aqueous solutions of compounds of formula (I) and to indicate which solutions had cooling intensities similar or slightly higher than that of a solution of menthol at 2 ppm.
With `COc1ccc(C(=O)OC(=Cc2nc3ccccc3n2C)c2ccc(OC)cc2)cc1` [1-(4-methoxyphenyl)-2-(1-methyl-1H-benzo[d]imidazol-2-yl)vinyl 4-methoxybenzoate], the Odor result is “None”. Next, `CC1CCC(C(C)C)C(O)C1` (stereo not drawn) [Example 1-Menthol, 1-Menthol, reference compound]: “Minty”.

For `COc1ccc(C(=O)OC(=Cc2nc3cc(C)ccc3n2C(C)C)c2ccc(OC)cc2)cc1` [Example 3, 2-(1-isopropyl-5-methyl-1H-benzo[d]imidazol-2-yl)-1-(4-methoxyphenyl)vinyl 4-methoxybenzoate], the Odor result is listed as “None”.

For `COc1ccc(C(=O)OC(=Cc2nc3ccc(C)cc3n2C(C)C)c2ccc(OC)cc2)cc1` [Example 5, 2-(1-isopropyl-6-methyl-1H-benzo[d]imidazol-2-yl)-1-(4-methoxyphenyl)vinyl 4-methoxybenzoate], the Odor entry is “None”.

Consider `Cc1ccc(C(=O)OC(=Cc2nc3ccccc3n2C)c2ccc(C)cc2)cc1` [Example 8, 2-(1-methyl-1H-benzo[d]imidazol-2-yl)-1-p-tolylvinyl 4-methylbenzoate], for which the Odor entry is on record as “None”.

For the compound `CCNC(=O)C1CC(C)CCC1C(C)C` (stereo not drawn) [N-ethyl p-menthanecarboxamide (WS-3), N-ethyl p-menthanecarboxamide, reference compound], the Odor entry is “None”.
